Reference: PubChem BioAssay AID1347423 (Functional Genomics Laboratory (NCATS/FGL), 2020)
Out of some 52,000 sequences screened, about 210 (0.4%) were called active.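 Rule for the calls: active = gene whose silencing raises cell survival under the drug, median off-target-corrected z-score across its silencing RNAs 2 or more; inactive = the rest.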 This is one part of the list.

assay: Resistance to Poly (ADP-Ribose) Polymerase inhibitor: Gene Identification via Genome-wide siRNA Screen; conditions: mouse BRCA2 R2336H ES cells, olaparib, CellTiter-Glo viability; active compounds read high
In short: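 Genome-wide siRNA screen (3 siRNAs/gene, 20 nM) in mouse ES cells carrying hypomorphic BRCA2 R2336H; olaparib 500 nM added 48 h post-transfection, CellTiter-Glo viability 72 h later. Normalized to plate-median negative control; MAD z-scores, gene median, seed-adjusted.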

Sequence	z-score
GGAAGAAAUAUACAAAGACTT against 5730511K23Rik	inactive: 0.33
GCAAUGUGUCAGGCACACATT against Pax2	inactive: 1
GGCAGAAGAAGAAGUUAUATT against Gja10	inactive: -0.341
GGACCACAGCUGGAUAUAUTT against Sik2	inactive: -0.369
GGGUCUGCAUAGGUUGUUATT against Epm2a	inactive: 0.192
GGAAAUGCGUCAAAAGACUTT against H2afz	inactive: 0.234
CGGCUAGAUGAUCCUACCUTT against Tsga13	inactive: -2.22
GGUGCAUAAACGAUGUGGATT against Bat9	inactive: 0.642
GCCGAACGUGUUUAAACUCTT against D430018P08	inactive: -0.751
GCCGUCUUAACACCUAUGGTT against Olfr690	inactive: -3.04
CCGUCUAUACCUUAAUUGATT against Il28ra	inactive: 0.871
GGGCCUUAGGCUAUUCCUATT against Otub2	inactive: -0.679
GGCACUAAGGAAGAAAAAATT against 4933433C09Rik	inactive: -1.23
GCUCAUCUUAGACGAGGCCTT against BC027373	inactive: 0.227
CUCUAAGAAACAUGGUGGCTT against Sod1	inactive: 0.0934
GGAAAUACAGCUCUUGCUCTT against 5730405I09Rik	inactive: -0.823
GGAGAAGCAGGCCUUACAGTT against Tna	inactive: -0.787
CCCGGACAUCAUAAUCAGUTT against 6330579B17Rik	inactive: -0.929
GCAAUGCUCUAAUCCACUCTT against Nxf	inactive: -0.131
GCAGCUAAACACCGAUAUGTT against 1700027M21Rik	inactive: 1.27
CCAGCAUAUCUACUGUUCUTT against V1rf2	inactive: -0.647
GGUUGGACAGAAACAUCAGTT against Rab7l1	inactive: 3.01
GCAACAACCGCACAUCUCATT against Cdc26	inactive: -1.48
GGUUGGAAUUGUGCAAUAATT against A630050E13Rik	inactive: -1.86
GAUUUCUAUACAGCCUAUCTT against Olfr799	inactive: -1.27
GCAGAUUUGAAUUCAGACATT against Mup4	inactive: -0.0856

Sequence	z-score
CUUAGACCCAAUUCAAUUCTT against A830025F02Rik	inactive: 3.01
GGAAACUCCAACUUGUUUGTT against Ankra2	inactive: -0.105
GGGUUUUUCAUGUGUUUACTT against 2400008B06Rik	inactive: -1.08
GGUGAGCAUCGUGUUCAUCTT against Galntl4	inactive: 1.65
GGAGAUUUAACUGAAAGACTT against D12Ertd748e	inactive: -0.651
GGAAAAAGCCAAUUAUGUCTT against Fbxl2	inactive: 1.22
GGUUUCUGGAAGAAACUGGTT against Rpo1-4	inactive: 1.86
GGAUGAGGACACCAUUGAUTT against Sumo3	inactive: -1.86
GGGAGAACCGGAUGAGAUUTT against Itpa	inactive: -1.22
GGGUCAUCUUACCACAGUUTT against Nptxr	inactive: -0.0266
CCACCUCCUCUCGAUACAATT against Zfp36	inactive: -1.04
GGCCUCAUCUUGAAUAUUUTT against Hsd17b3	inactive: -0.342
GUUCUGAAAAUAGAAUAAUTT against V1rc29	inactive: 0.713
GGAAAGAUGUGGUCCAGCUTT against Sirt3	inactive: -1.23
GGAUACCUGAAAAUUGAUATT against Npr1	inactive: -0.267
GGAGUUUUUAUUCAAGGAATT against Slc35b3	inactive: 0.606
GCCUCAACUCAAGCCUUCATT against Olfr525	inactive: -1.09
CCAACUAAUCCCAUAUUCCTT against 1200015A22Rik	inactive: 0.294
GGUCAUUUGUUGUAUGUAGTT against C230004F18Rik	inactive: 1.25
GGACUGCCUUAAUUAAAGUTT against 1810063B05Rik	inactive: -0.477
GGUCACAUUUAAUGUCACATT against Itgam	inactive: 0.129
GGAGGAUCCUCUAAAACAGTT against Slc23a3	inactive: -0.453
GGCAGUUUGGACAGCAAGATT against Mybl2	inactive: 0.628
GGCAAUUCACUGUGAGUAATT against 2310038H17Rik	inactive: 0.159
GGGAAAAUCCCAAAACUGUTT against Serpinb1a	inactive: 1.01
GGCAAAAAACAAAGACCUUTT against Plfr	inactive: 1.01

Sequence	z-score
GGAGGUAUUCACAGAACUGTT against U2af1l4	inactive: -1.78
GCAACUAUCUGCUUAUUUATT against BC019731	inactive: 2.25
GGUCUUGCUGAUCAACAACTT against Bai2	inactive: 1.56
GGACACAGUCAGACAAAUCTT against Olfr1161	inactive: -0.515
GGCCUCCAAAUGAACAGCATT against 6720458F09Rik	inactive: 1.74
GGCAUGGCUGGCAAAAACATT against Myd116	inactive: 2.22
GGUGAUUGCCCACAAUCAGTT against Mthfs	inactive: -0.726
GGUUUUCACCCUGAAUGUGTT against Siglecl1	inactive: -0.536
GGCCUGUGAGCUAUGUAUCTT against 2310002B14Rik	inactive: -0.333
GGUGUCUUAUGAGCAAUAUTT against Pdcd6	inactive: 0.346
GGCUGUUUGCGUGAUAGACTT against 1200011O22Rik	inactive: 1.22
CCGUGCAGAUUAACUUCUUTT against Plk1	inactive: -2.48
GCUAAGACACGAUAAACUUTT against Yes	inactive: 0.376
GGUCCUACUUACUACUGCCTT against AA409316	inactive: -0.959
GGUUAUGCAUUACUCUCUUTT against Prkdc	inactive: 0.32
GGAGAUCAACAUCUAUCAGTT against 1-Sep	inactive: 0.556
GGGAAAAACACUUCUCACUTT against A530082C11Rik	inactive: -0.215
GCAACCUCUCCUCUCUAGATT against Olfr15	inactive: 0.597
GGUUCUUACUUGUAAAUAGTT against Sdad1	inactive: -0.462
GGUCUCACAAAAACAGUUCTT against Casq2	inactive: -0.446
GGAAGUGUGACAGAAUGCGTT against Loxl3	inactive: 0.0492
GGAGCAUGGAUAAUUACAGTT against Trpm6	inactive: -1.34
GGAGUUUCUCUUUAAUCCUTT against Hoxc8	inactive: 0.862
GGAGCAAUGGCUAGCAGUUTT against 3110040N11Rik	inactive: 2.38
GCAACUAUCCACUCUCUGCTT against Grcc2f	inactive: -2.34
GGCAGUCGAUACAAACUUUTT against Fto	inactive: -0.174

An excerpt of these results, bar-delimited.
Sequence | z-score
GGCCUGUGAGCUAUGUAUCTT against 2310002B14Rik | inactive: -0.333
GGUGUCUUAUGAGCAAUAUTT against Pdcd6 | inactive: 0.346
GGCUGUUUGCGUGAUAGACTT against 1200011O22Rik | inactive: 1.22
CCGUGCAGAUUAACUUCUUTT against Plk1 | inactive: -2.48

Further results.

Sequence	z-score
GGCCAUCGCACUUAAACUUTT against 1700123K08Rik	inactive: 0.275
GGAGAAAAGAGUUUGCCCGTT against Wfdc12	inactive: 0.709
GGGCUUGUUUUUGCACUUATT against Blcap	inactive: 0.2
GCCCAUGUGUAAUACAUUUTT against Prps1	inactive: 0.16
GGGUGAAGGACAAGAAAAUTT against Hoxd13	inactive: -1.09
GGCAGCCAUAAUCACAAUGTT against LOC435285	inactive: 1.45
GGAAGACAUAUUUCAACAGTT against Ehhadh	inactive: 0.4
GGGACUCACAUUUAAACAATT against Rg9mtd2	inactive: -0.826
GGGAGAUAAAAAGUUAAGGTT against Bclaf1	inactive: 0.0648
GCAUUUGGUUCGACAUAUATT against Pcnx	inactive: 0.533
GGACUUUUCUUUUGGAAGGTT against Nbl1	inactive: 0.0954
GGUCAAGUCAAUUACAGUUTT against Pdcd8	inactive: -0.432
GGUUGAUGGGUAAUAAACUTT against Nfatc4	inactive: 0.0528
GGCCUCAAACUGAAUAUUATT against C730040N12Rik	inactive: 0.0416
GUUUGAAACUCACUGGAAATT against V1rg5	inactive: 1.13
CCUUCAAAGUAACUCUUAGTT against AI467503	inactive: -2.08
GGAACAGUUACGAAAAGUGTT against 5730409F24Rik	inactive: -1.54
GGAGACAUCUCAAAUGAUATT against Trim30	inactive: -0.567
GGUGCUAAGUUUUGUAUCUTT against 2410002M20Rik	inactive: -0.555
GGGUAUAGCCAGUACCAACTT against 1500006O09Rik	inactive: -1.91
GGAGAAAUGAAGAUUGUGGTT against 1810021J13Rik	inactive: 0.618
GGAAUCCAUGCAGAAAUAATT against Pcdhga6	inactive: 1.54
GGAGUUGGCCAUGUGGAAATT against 0610008N23Rik	inactive: 0.21
GGCAGCUGGCUAUUUUCACTT against AI931714	inactive: -0.739
GGUAUUUUGUAGCACUUAATT against Fgf20	inactive: -1.14
